Reference: publication doi:10.1101/2022.12.19.521009
Results are given in words; binding and its absence hold for the method and conditions named. In cells and extracts the contact can be indirect. A yes stands for co-enrichment or nearness to the bait. Other partners may have been found.

Target: UmSee1-TurboID-3HA (Ustilago maydis)
Experiment: affinity purification with mass spectrometry

ZmSIP2 (Zea mays See1-interacting protein 2) (from UniProt A0A1D6G9Q0)
binding: binds
